The target of data set [1] is NEMO (IKK-gamma) (UniProt Q9Y6K9). The experiment in a line: pull-down. The conditions noted are these: 3'-aminoalkyl (C3 or C6), phosphodiester backbone, protein details: endogenous, label: 5'-biotin.
The target of data set [2] is nucleolin (UniProt P19338). The experiment in a line: pull-down. As to conditions: 3'-aminoalkyl (C3 or C6), phosphodiester backbone; 3 uM oligo on HeLa cells 2 h, streptavidin capture, Western blot; protein in cells; protein details: endogenous, oligonucleotide-treated HeLa cells; label: 5'-biotin; single-stranded DNA.
In data set [3] the test system is NF-kappaB. The experiment in a line: EMSA. The conditions noted are these: 20 mM HEPES pH 7.9, 50 mM KCl, 1 mM EDTA, room temp; complex reduced in extracts of GRO-treated cells; protein in an extract; label: 32P end-label.

By UniProt entry, the sequences of proteins in these tests, tags left out. Residues count along the entry.
UniProt Q9Y6K9, whole entry: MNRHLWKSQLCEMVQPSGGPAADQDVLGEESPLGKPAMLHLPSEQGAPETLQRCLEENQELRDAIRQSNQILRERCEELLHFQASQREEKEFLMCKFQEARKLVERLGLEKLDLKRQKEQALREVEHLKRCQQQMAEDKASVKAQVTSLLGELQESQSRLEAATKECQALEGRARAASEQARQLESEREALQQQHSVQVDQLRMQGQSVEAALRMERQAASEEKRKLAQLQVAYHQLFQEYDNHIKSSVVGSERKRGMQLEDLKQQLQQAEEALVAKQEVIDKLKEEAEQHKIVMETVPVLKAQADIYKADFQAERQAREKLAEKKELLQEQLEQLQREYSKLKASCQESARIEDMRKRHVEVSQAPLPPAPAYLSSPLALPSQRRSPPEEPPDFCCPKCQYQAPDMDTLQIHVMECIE
UniProt P19338, 2-710: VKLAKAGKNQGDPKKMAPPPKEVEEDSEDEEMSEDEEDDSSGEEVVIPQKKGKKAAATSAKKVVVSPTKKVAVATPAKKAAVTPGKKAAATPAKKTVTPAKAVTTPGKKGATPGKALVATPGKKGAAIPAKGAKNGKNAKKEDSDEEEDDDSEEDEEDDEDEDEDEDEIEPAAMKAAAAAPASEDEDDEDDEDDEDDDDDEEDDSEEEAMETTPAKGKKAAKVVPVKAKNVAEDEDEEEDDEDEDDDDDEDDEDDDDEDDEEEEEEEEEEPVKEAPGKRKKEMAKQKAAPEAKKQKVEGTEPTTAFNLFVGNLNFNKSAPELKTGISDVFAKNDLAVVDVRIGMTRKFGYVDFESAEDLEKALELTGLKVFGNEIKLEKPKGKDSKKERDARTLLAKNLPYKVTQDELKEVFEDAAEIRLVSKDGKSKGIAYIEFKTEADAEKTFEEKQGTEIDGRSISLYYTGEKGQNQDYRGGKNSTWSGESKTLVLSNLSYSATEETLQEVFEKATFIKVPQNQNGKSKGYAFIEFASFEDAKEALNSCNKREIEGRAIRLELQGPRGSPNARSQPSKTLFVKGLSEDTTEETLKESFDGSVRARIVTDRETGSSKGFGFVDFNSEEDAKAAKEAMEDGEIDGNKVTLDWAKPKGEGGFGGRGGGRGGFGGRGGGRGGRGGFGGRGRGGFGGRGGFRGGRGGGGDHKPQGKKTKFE

The exact form of at least one protein or probe is not confirmed. Where cells or extracts were used, other partners may take part.

For the sequence TTTGGTGGTGGTGGTTGTGGTGGTGGTGG [GRO29A], the binding result in data set [1] (streptavidin beads, 30 min 37 C, identified by MALDI-TOF, may be indirect, protein in an extract, HeLa nuclear and S-100 extracts, single-stranded DNA) is recorded as “binds”.

Turning to GGTGGTGGTGGTTGTGGTGGTGGTGG [GRO26B], the binding result is reported as “binds” in data set [1] (3 uM oligo on HeLa cells 2 h, streptavidin capture, Western blot, possibly via nucleolin ternary complex, protein in cells, oligonucleotide-treated HeLa cells, single-stranded …) and “binds” in data set [2].

For “TGCAGGAGGTCCGGCTTTTCCCCAACCCCCC (double strand) [NF-kappaB upstream response element (URE)]”, the binding result in data set [3] is “binds”.

The values are drawn from patent publication US20050187176.
